Data reported in publication PMC10958106.
These are yes or no findings as the source states them, for the method shown. In cells and extracts the contact can be indirect. Some entries that bind do so weakly or less than the wild type.

Protein sequences, listed by entry. Tags and fused reporters are not part of them.
UniProt Q96CW1: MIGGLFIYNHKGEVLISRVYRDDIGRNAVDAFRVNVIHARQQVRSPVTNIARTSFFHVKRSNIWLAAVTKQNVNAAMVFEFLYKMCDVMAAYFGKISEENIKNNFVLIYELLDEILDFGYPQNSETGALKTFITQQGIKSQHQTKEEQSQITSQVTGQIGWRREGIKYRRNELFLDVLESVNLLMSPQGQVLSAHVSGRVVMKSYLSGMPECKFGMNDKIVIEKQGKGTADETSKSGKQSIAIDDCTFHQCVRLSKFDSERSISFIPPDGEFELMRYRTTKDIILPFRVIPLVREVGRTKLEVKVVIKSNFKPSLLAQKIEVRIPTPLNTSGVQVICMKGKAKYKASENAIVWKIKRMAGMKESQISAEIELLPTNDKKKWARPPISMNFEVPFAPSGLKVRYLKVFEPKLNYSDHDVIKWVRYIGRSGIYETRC
UniProt P03129: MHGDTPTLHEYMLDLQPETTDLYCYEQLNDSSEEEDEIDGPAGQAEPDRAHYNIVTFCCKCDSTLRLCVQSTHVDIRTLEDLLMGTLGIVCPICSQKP

Target: AP2M1-HA (UniProt Q96CW1)
Experiment: co-IP; HEK293 cells co-transfected with the receptor and AP2M1-HA (or empty vector), with or without HPV-16 E7 Wt-FLAG or E7 Y25A-FLAG; extracts incubated with anti-HA beads 3 h at 4 °C; Western blot

“HPV-16 E7Wt-FLAG (from UniProt P03129 1-98)” was tested, and the binding was “binds”.
